Source: patent US7897638B2, “Synthesis of nitrodibenzylfuran chromophore for photodeprotection of organic molecules” (Philadelphia Health & Education Corporation, priority 2005, dated 2011)

Test: Quantum yield of photolysis by comparison with MNI-glutamate, HPLC
Format: physicochemical
Description: Inventors measured the quantum yield of photolysis of NDBF-EGTA by comparison with a known standard, 4-methoxy-7-nitroindolinyl(MNI)-glutamate (Matsuzaki, et al., 1999). A solution containing NDBF-EGTA and MNI-glutamate was photolyzed at 350 nm, in order to determine the relative % photolysis of the two caged compounds. The concentrations of the two compounds were set so that their chromophores would absorb the same amount of light (MNI/NDBF ratio 3.7:1), and so that the total optical density was 0.4. Under these conditions the same number of excited states are created simultaneously for both cages, making determination of the quantum for NBDF-EGTA more reliable. As a control, both cages were photolyzed separately to check that there was no interference from simultaneous photolysis. Inosine was also included in the photolysis reaction mixture, as a photochemically inert standard. MNI-glutamate has a quantum yield of photolysis of 0.085. […] Saturating [Ca] had no effect on this value.

NDBF-EGTA
photolysis speed relative to MNI-glutamate (one-photon, 350 nm, HPLC): 6-7 times | effect of saturating [Ca] on quantum yield of photolysis (saturating [Ca]): no effect
